Laboratory results as given in PubChem BioAssay AID493014 (National Center for Advancing Translational Sciences (NCATS), 2011).
Some of the results follow. Further columns of the screen follow, without active or inactive calls. Compounds called inactive in the main read-out are mostly missing here. Potencies come from curve fits of mixed quality, noted in brackets.

Experiment: qHTS Assay to Find Inhibitors of Chronic Active B-Cell Receptor Signaling
Details: ABC-DLBCL IkBa-CBG/CBR reporter, luminescence ratio (green luciferase fused to IkBa over red control in TMD8 lymphoma cells), 4 h
Procedure, shortened: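 TMD8 human ABC-DLBCL cells with doxycycline-inducible IκBα–green luciferase fusion and unfused red luciferase, in 0.5% FBS medium; compounds up to 46 uM, 4 h at 37C. Green/red luminescence ratio, filter-overlap corrected, fitted to concentration-response curves.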

[1] = measured here: CBR red luminescence, cell number
[2] = measured here: IkBa-CBG green luminescence

Structure (SMILES)	AC50 [1]	AC50 [2]
CCc1ccc(OCC(=O)N2CC(C(N)=O)Oc3ccccc32)cc1 (stereo unspecified)	8.91 µM [rising, partial curve]	–
CN(C)c1ccc(-c2nc3ccccc3n2C)cc1	12.6 µM [falling, single point]	–
Cc1cc(Cl)cc(Br)c1OCCCNCC(C)O (stereo unspecified)	15.8 µM [falling, single point]	–
COc1ccc(S(=O)(=O)NC(C)C)cc1-n1cnnn1	15.8 µM [falling, single point]	–
O=C(C(Cc1ccccc1)N1C(=O)c2ccccc2C1=O)N1c2ccccc2CCc2ccccc21 (stereo unspecified)	20.6 µM [falling, partial curve]	–
Cc1nn(-c2ccccn2)c(N)c1N=O	20 µM [falling, single point]	–
Cc1cccc(Nc2nc(NCc3ccco3)nc(N3CCOCC3)n2)c1	32.6 µM [falling, single point]	–
O=C(O)c1ccccc1CSc1nc2ccccc2[nH]1	12.6 µM [falling, partial curve, poor fit]	–
O=C(Cc1ccccc1)Nc1ccc(NC(=O)c2cccs2)cc1Cl	2.82 µM [falling, full curve, poor fit]	–
Oc1cc(-c2ccccc2)c2ccccc2c1	9.2 µM [rising, partial curve]	–
CCOC(=O)Cc1csc(NC(=O)Nc2ccc(F)cc2)n1	15.8 µM [falling, single point]	–
COc1ccc(NC(=S)NC(NC(=O)c2cccc(Cl)c2)C(Cl)(Cl)Cl)c([N+](=O)[O-])c1 (stereo unspecified)	32.6 µM [falling, partial curve, poor fit]	23.1 µM [rising, partial curve, poor fit]
COC(=O)COc1ccc2c(=O)c(-c3ccccc3OC)coc2c1	10 µM [falling, partial curve, poor fit]	–
O=C(Nc1ccc(/C=C/c2nc3ccccc3o2)cc1)c1c(F)cccc1F	0.116 µM [rising, full curve]	–
CC(=O)Nc1ncc(Cc2ccc(Cl)cc2Cl)s1	20 µM [rising, partial curve, poor fit]	–
Nc1c(C(=O)Nc2ccc(Cl)cc2)oc2ccccc12	11.2 µM [falling, partial curve]	–
CCCc1nc(SCC(=O)NNC(=O)c2ccc(OC)cc2)c2ccccc2n1	6.31 µM [falling, partial curve]	–
NS(=O)(=O)c1ccc(CCNC(=O)COC(=O)C2CCCN2C(=O)c2cccs2)cc1 (stereo unspecified)	15.8 µM [rising, partial curve, poor fit]	–
CCN1C(=O)/C(=C/N2CCc3ccccc32)SC1=S	1.46 µM [rising, partial curve, poor fit]	–
CCOc1ccc2oc(C(=O)OC(C(=O)NC(N)=O)C(C)C)c(C)c2c1 (stereo unspecified)	7.08 µM [rising, partial curve, poor fit]	–
C=CCOC(=O)C(=O)/C=C/c1csc2ccccc12	15.8 µM [rising, partial curve]	20 µM [rising, single point]
O=C(/C=C/c1ccco1)Nc1ccccc1C(=O)O	0.355 µM [falling, full curve]	–

In the list so far, 3 have a thiophene ring, fused or not.
Structure (SMILES)	AC50 [1]	AC50 [2]
O=C(Cc1ccccc1)Nc1ccc(NC(=O)c2cccs2)cc1Cl	2.82 µM [falling, full curve, poor fit]	–
NS(=O)(=O)c1ccc(CCNC(=O)COC(=O)C2CCCN2C(=O)c2cccs2)cc1 (stereo unspecified)	15.8 µM [rising, partial curve, poor fit]	–
C=CCOC(=O)C(=O)/C=C/c1csc2ccccc12	15.8 µM [rising, partial curve]	20 µM [rising, single point]

Carrying on.

Structure (SMILES)	AC50 [1]	AC50 [2]
O=C(CN1CCN(c2ccccn2)CC1)Nc1ccc(Oc2ccccc2)cc1	0.562 µM [rising, full curve, poor fit]	–
COc1ccc(C=O)cc1COc1ccc(F)cc1F	29.1 µM [rising, single point]	32.6 µM [falling, partial curve, poor fit]
NC(=O)c1oc2ccccc2c1NC(=O)c1ccc(F)cc1	0.82 µM [falling, full curve]	–
COc1ccc(-c2nc3ncccc3n2O)cc1	12.6 µM [falling, single point]	–
COc1ccc(Nc2cc(C(=O)NCCCN3CCN(C)CC3)c3ccccc3n2)cc1OC	1.12 µM [falling, full curve, poor fit]	–
CCN(CC)S(=O)(=O)c1ccc(C(=O)OCC(=O)c2ccc3c(c2)NC(=O)CO3)cc1	17.8 µM [rising, single point]	–
Cc1ccc(C(=O)N/N=C\c2cccs2)cn1	1.12 µM [falling, partial curve, poor fit]	–
COc1ccc(NC(=O)CNC(=O)c2ccco2)cc1S(=O)(=O)Nc1cc(C)ccc1Br	25.9 µM [rising, single point]	–
CC(Oc1cccc(Cl)c1)c1ccnc2nc(/N=C/N(C)C)nn12 (stereo unspecified)	11.2 µM [falling, partial curve, poor fit]	–
COc1cc(SC)ccc1C(=O)Nc1nc(C)cs1	4.47 µM [falling, partial curve, poor fit]	12.6 µM [rising, partial curve, poor fit]
CC1CC(=O)Nc2ccccc2N1S(=O)(=O)c1ccc(F)cc1F (stereo unspecified)	6.31 µM [falling, single point]	–
Cc1ccc(C(=O)N2CCCC(Nc3ccc(F)cc3)C2)cc1C (stereo unspecified)	22.4 µM [falling, single point]	–
Cc1ccc(Cn2cc(CCC(=O)O)c3ccccc32)cc1	35.5 µM [rising, single point]	–
Fc1ccc(-c2nc(-c3cccs3)no2)cc1	1.41 µM [rising, full curve, poor fit]	–
CCOc1cccc(-c2cc(C(=O)Nc3ccon3)c3ccccc3n2)c1	4.47 µM [falling, partial curve, poor fit]	–
COc1ccc(NC(=O)c2c(NCc3cccs3)sc3c2CCCCC3)cc1	0.1 µM [falling, full curve, poor fit]	–
CN(C1CCCCC1)S(=O)(=O)c1ccc(F)c(C(=O)Nc2ccc(C(F)(F)F)cc2)c1	0.224 µM [rising, full curve, poor fit]	–
O=C(Nc1cccc(-c2nn[nH]n2)c1)c1ccc(Br)s1	28.2 µM [falling, single point]	14.1 µM [rising, partial curve, poor fit]
COc1cccc(C2=NOC(C(=O)NCc3ccco3)C2)c1 (stereo unspecified)	31.6 µM [falling, single point]	–
C=CCc1cc(C(=O)N2CCCCC2)ccc1O	32.6 µM [falling, single point]	–
CCCc1ccc(-c2c(C)sc(N)c2C#N)cc1	0.092 µM [rising, full curve, poor fit]	–
N=c1sc2ccccc2n1-c1ccccc1	1.64 µM [rising, full curve, poor fit]	–

Structure (SMILES)	AC50 [1]	AC50 [2]
CCOC(=O)CC(=O)c1cc(OC)c(OC)c(OC)c1	25.9 µM [falling, single point]	–
Cn1cc(CC(=O)NC2CCCCC2)c2ccccc21	15.8 µM [falling, partial curve]	–
Oc1ccc(Nc2nc(-c3ccc(O)cc3)cs2)cc1	20.6 µM [falling, partial curve]	–
Cc1oc(-c2ccc(Cl)cc2)nc1CN1CCC(C(=O)N2CCN(Cc3ccccc3)CC2)CC1	23.1 µM [falling, single point]	25.9 µM [rising, partial curve, poor fit]
O=c1c(-c2nc3ccccc3s2)cccn1Cc1ccccc1	2.82 µM [falling, full curve]	–
Cc1ccc2nc(NC(=O)[C@H](C)N3C(=O)C4CC=CCC4C3=O)sc2c1 (stereo partly specified)	20 µM [falling, partial curve, poor fit]	–
O=C(Nn1cnnc1)c1ccc(Cl)c([N+](=O)[O-])c1	35.5 µM [falling, single point]	–
CCN(CC)S(=O)(=O)c1ccc(/C(O)=C(\C#N)c2nc3ccccc3n2C)cc1	2 µM [rising, partial curve]	–
Cc1nn(-c2ccccc2)c2c1C(O)n1c(nc3ccccc31)S2 (stereo unspecified)	29.1 µM [falling, single point]	–
O=C(CCS(=O)(=O)Cc1ccc(Cl)cc1)NCCCN1CCOCC1	3.26 µM [falling, partial curve, poor fit]	–
CCOC(=O)c1sc2nc(CSCC(=O)OCc3ccc(C(=O)OC)o3)[nH]c(=O)c2c1C	12.6 µM [falling, partial curve, poor fit]	–
COc1cccc(NC(=O)Cn2cnc3sc(C)c(S(=O)(=O)N4CCN(C)CC4)c3c2=O)c1	9.2 µM [falling, partial curve]	–
O=C1c2ccccc2C(=O)N1CCc1nc(-c2ccncc2)no1	6.51 µM [falling, single point]	–
CC(O)CNc1nc2c(c(=O)n(Cc3ccc(Cl)c(Cl)c3)c(=O)n2C)n1C (stereo unspecified)	12.6 µM [falling, single point]	17.8 µM [rising, single point]
CCCNC(=S)NCCN1CCCCC1	18.4 µM [rising, single point]	–
O=C1CCCC(O)=C1C(C#Cc1ccccc1)C1=C(O)CCCC1=O	20.6 µM [falling, single point]	–
Cc1cccc(NC(=O)CSc2nnc(NC(=O)CN3CCOCC3)s2)c1	0.00461 µM [rising, full curve, poor fit]	–
CC(=O)Nc1ccc2c(CSc3nncs3)cc(=O)oc2c1	3.16 µM [rising, partial curve, poor fit]	–
CCc1c(O)nc(SCC(=O)Nc2ccc(OC)cc2)n(C2CCCCC2)c1=O	6.51 µM [falling, single point]	–
COc1ccccc1C(=O)NCCC(=O)Nc1cccc(C)n1	6.31 µM [rising, single point]	–
